The other results are listed elsewhere or left out.
B1: il2ra_site1_3nfp_sap_8_mot_HHH_b1_03420_af2_000000029_0001_41_57_H_._ems_3hC_894_0001_af2_0001_0000200010_0000001_0_0001 (protein)
chain: DEEMQARAIAKLLKRAAGVESVEVEVENNEIEVTFKGNDEAVRRAAEAVRKLAKMLGIPVEIEVE
B2: il2ra_site1_2b5i_normal_mot_HHH_b2_06044_000000134_0001_1_20_H_._HHH_b2_07763_af2_0001_0000300031_0000001_1_af2pred_dldesign_0_af2pred (protein)
chain: SSSSSEKEEKVYDLYNKALKLFKEGKKEEAKELLEEALKLAEELGSEKIAAELKRLLELLSSSSS
B3: il2ra_site1_3nfp_normal_mot_HHH_b1_05523_000000027_0001_1_19_H_._HHH_b2_00888_af2_0001_0000100003_0000001_0 (protein)
chain: SSSTDETERLLREVYEALKEAEERGDEELLKEILEEAERLAEELNDENLVRAIRFLLRALESSSS
B4: il2ra_site1_1z92_sap_12_mot_HHH_b2_03658_000000138_0001_39_56_H_._HHH_b2_00767_0001_0000900047_0000001_0_0001_af2pred_0001_af2pred (protein)
chain: SLLEELEELLEKLNTPVAKSLIRLLRFALEKGDADPEDILKDLLHAARALNDPEVQEVIEEILRK
B5: il2ra_site1_2b5i_normal_mot_HHH_b1_02271_000000068_0001_1_16_H_._HHH_b2_07355_af2_0001_0000100001_0000001_0_af2pred_dldesign_0_af2pred (protein)
chain: SSSSSSRRELLEELNKLYKELGEKGHDEAMDEVDELYRRALLENDPRLLEEAIKLAKEVLSSSSS
B6: il2ra_site1_3nfp_normal_mot_HHH_b1_01159_af2_000000075_0001_1_20_H_._HHH_b2_02821_0001_0000200006_0000001_0_af2pred_0001_af2pred (protein)
chain: SSSSDEREELRRLLEEVAEAAREGNEEELERLLEEALKLAQENNDKSARRFLESLLKQVSSSSSS
B7: il2ra_site2_2erj_sap_22_mot_HHH_b2_08311_000000155_0001_42_56_H_._HHH_b1_06235_af2_0001_0000100002_0000001_0_0001 (protein)
chain: SSSSSTSVELALEMAEELAERGNKASLEFALRYLELNRKQTNTDEVREAYRIVEELLEELSSSSS
B8: il2ra_site1_2b5i_sap_14_mot_HHH_b1_01804_af2_000000230_0001_22_38_H_._2fe55654ba661275baf09010e83dfa6f_0001_1_0001_0000700061_0000001_0_0001_af2pred_dldesign_0_ … (protein)
chain: SSSSSPEREKAEELIEKAKELYEAGKRREALKTLEEAYKIAAAAEDDELLDRIEELAKKISSSSS
B9: il2ra_site1_2b5i_normal_mot_HHH_b1_06428_000000224_0001_1_17_H_._HHH_b2_02396_0001_0000400030_0000001_0_af2pred_dldesign_0_af2pred (protein)
chain: SSSSSSSSSRALIAALEEARRAGDREAARELAERLLEEAKKRNSKNLIKLAEQALEELSSSSSSS
B10: il2ra_site2_3nfp_sap_27_mot_HHH_b2_08086_000000129_0001_21_37_H_._HHH_b1_02974_0001_0000200015_0000001_1_0001 (protein)
chain: SSSSSSDELEELQREIERAEEEGDRNEVAQLLLELTELAAENNDEEAAEFVLEVYAELRSSSSSS
B11: il2ra_site2_2erj_sap_15_mot_HHH_b2_08311_000000155_0001_42_56_H_._HHH_b2_07560_0001_0000300016_0000001_0_0001 (protein)
chain: SPEYEEILREAEEIVEEALKKNDEEKLLEAASLVIEAARKFLDDEEAFKRIREVFTRIAREREKS
B12: il2ra_site2_3nfp_normal_mot_HHH_b1_00660_af2_000000199_0001_40_57_H_._HHH_b1_06222_0001_0000100003_0000001_0 (protein)
chain: SSSSDKEEERLEELLKELEKAVREGDEELVRRIAAEVLHLAFEANDHEVFARIAELLLEFLSSSS
B13: il2ra_site2_3nfp_sap_11_mot_HHH_b1_00882_af2_000000293_0001_1_18_H_._HHH_b1_01194_af2_0001_0000300012_0000001_0_0001 (protein)
chain: SSSSSSSLYELLQEAVEAAKNGNPEEAKEILEQALEEAREAGDEEAEHFIEWFIKAVRSSSSSSS
B14: il2ra_site1_1z92_normal_mot_HHH_b1_03515_000000289_0001_1_19_H_._HHH_b1_04203_af2_0001_0000100008_0000001_0 (protein)
chain: SSSSSRLERSLKIAVRVAVRVAGLSEEEQEELEELAEELARRGIDALEAIKILDRRAAELDSSSS
B15: il2ra_site1_3nfp_normal_mot_HHH_b2_02053_000000240_0001_1_20_H_._8b3018496bece20695a4731cc719293d_0001_1_af2_0001_0000300015_0000001_0_af2pred_0001_af2pred_1_sw … (protein)
chain: GPRAAKRLVRLALEENSPKALRRILEDAERTLGDPEEAEELLSRLIAEVLKVPPEEARKIVEEVK
B16: il2ra_site2_3nfp_sap_15_mot_HHH_b1_04032_000000208_0001_43_56_H_._HHH_b1_03115_af2_0001_0000200007_0000001_0_0001 (protein)
chain: SSSSSDEREFERAVKSALEFAKQIEDEELRRSALEWAEAVAIMGNNPELQELVEKVKEELSSSSS
B17: il2ra_site2_3nfp_normal_mot_HHH_b2_02437_000000052_0001_42_56_H_._HHH_b1_03056_0001_0000100006_0000001_0_af2pred_0001_af2pred (protein)
chain: SSSSSSSEEEEQIEELLERAEHTEDEFRRFALLADALFLALKARDPELERRVREVAAKLSSSSSS
B18: il2ra_site1_3nfp_sap_14_mot_0eddeacbb14b769e73e254714f31e2f9_0001_af2_000000052_0001_37_51_H_._HHH_b2_07712_af2_0001_0000100003_0000001_0_0001 (protein)
chain: DEEVEELIEELRKRDLQLAILLKIVVEAIKRIGNPEAEELLREAIELIKEGNPEEAKRVLREAVK

Molecular target: il2ra, P01589
Experiment: yeast display titration

Apparent Kd, inactive:
B1 no binding seen, B2 no binding seen, B3 no binding seen, B4 no binding seen, B5 no binding seen, B6 no binding seen, B7 > 2260 nM, B8 no binding seen, B9 no binding seen, B10 no binding seen, B11 no binding seen, B12 no binding seen, B13 no binding seen, B14 no binding seen, B15 > 424 nM, B16 no binding seen, B17 no binding seen, B18 no binding seen
